Measured values as given in PubChem BioAssay AID504847 (National Center for Advancing Translational Sciences (NCATS), 2011).
Out of some 400,000 compounds screened, about 3,700 (0.93%) were called active. The shares of active, inactive and inconclusive entries below differ from those in the screen. The call rests on the fitted dose curve; in most records, active means well fitted inhibition curve with a large enough effect; inconclusive means small, poorly fitted or top-dose-only effect, or another doubt; inactive means no such curve, though single readings can be large or run the other way. Where the call is inconclusive, the potency comes from a doubtful curve fit. A structure can be active in one record and inactive in another.

Protein sequences, listed by entry. Tags and fused reporters are not part of them. Lines headed by an entry give the natural chain unless they say otherwise; changes in a name come on top.
UniProt P11473: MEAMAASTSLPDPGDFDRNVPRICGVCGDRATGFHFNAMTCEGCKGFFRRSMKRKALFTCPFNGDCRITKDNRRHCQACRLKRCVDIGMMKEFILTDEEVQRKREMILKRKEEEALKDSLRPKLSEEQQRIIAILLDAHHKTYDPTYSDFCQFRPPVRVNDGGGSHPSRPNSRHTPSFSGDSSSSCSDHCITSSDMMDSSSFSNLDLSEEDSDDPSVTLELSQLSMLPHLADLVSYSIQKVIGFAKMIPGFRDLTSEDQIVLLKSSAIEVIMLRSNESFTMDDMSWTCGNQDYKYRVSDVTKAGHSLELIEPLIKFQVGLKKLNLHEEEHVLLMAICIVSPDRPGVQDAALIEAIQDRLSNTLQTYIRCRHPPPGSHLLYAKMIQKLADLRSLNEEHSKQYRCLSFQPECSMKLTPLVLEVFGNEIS

What follows are compounds tested against Vitamin D3 receptor (Homo sapiens) (UniProt P11473) (assay: Inhibitors of the vitamin D receptor (VDR): qHTS). Details: VDR-SRC2-3 peptide fluorescence polarization, 2 h; max response, negative = inhibition: active compounds read low.
Method in brief: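 Fluorescence polarization assay measuring small-molecule disruption of VDR binding to the coregulator peptide SRC2-3. Compounds were pin-transferred (23 nl) into the reagent mix and incubated 2 h at room temperature before reading.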
On the % scale 0 is the no-effect control and ±100 the full control effect; potency means the concentration at half of the fitted maximal effect.

Max response, negative = inhibition, inactive:
CS(=O)(=O)c1ccccc1C(=O)Nc1cc2c(cc1C(=O)O)OCCCO2 6.75%
COc1ccc(CCN(C)C(=S)NC(=O)c2ccc(F)cc2Cl)cc1OC -0.99%
Cc1cc2c(c(=O)o1)C(C(C)C)C(C#N)=C(N)O2 (stereo not given) 4.64%
N/C(=N\OC(=O)COc1ccc2ccccc2c1Br)c1ccccn1 -6.06%
CC(c1nccs1)N(C)C(=O)c1ccc(OC2CCN(CCc3ccccc3)CC2)cc1 (stereo not given) 8.62%
O=C(Cn1c2ncccc2c(=O)n1-c1ccccc1)Nc1ccc(F)c(F)c1 1.91%
COc1ccc(OC)c(C(C)NC(=O)Cn2c(=O)cc(C)c3c(C)nn(-c4ccc(C)cc4)c32)c1 (stereo not given) 6.98%
COc1cc(C#N)ccc1OC(=O)Cc1cc(OC)c(OC)c(OC)c1 7.81%
CCN1C[C@@H]2[C@@H]3C(=O)N(C)C(=O)[C@@H]3[C@](CC)(C(=O)OC)N2C1=NCc1ccccc1 -2.15%
CCN(CC)C(=O)c1ccc2nc(-c3ccccc3)c(-c3ccccc3)nc2c1 4.72%

Not a retest: 2 of the compounds above.
Max response, negative = inhibition, inactive:
CCN1C[C@@H]2[C@@H]3C(=O)N(C)C(=O)[C@@H]3[C@](CC)(C(=O)OC)N2C1=NCc1ccccc1 -2.15%
CCN(CC)C(=O)c1ccc2nc(-c3ccccc3)c(-c3ccccc3)nc2c1 4.72%

Following part.

Potency, inconclusive:
CO/N=C(/C(=O)N[C@@H]1C(=O)N2C(C(=O)O)=C(CSC(=O)c3ccco3)CSC12)c1csc(N)n1 (stereo not given in full) 44.7 µM [inhibitor, partial curve, poor fit]
COC(=O)c1ccccc1NC(=O)CCS(=O)(=O)c1ccc(Br)cc1 100 µM [inhibitor, single point]
CCOc1cc(CNCCc2ccccc2)ccc1OCC(=O)NC(C)(C)C 63.1 µM [inhibitor, partial curve, poor fit]
Cc1cc(C2=NNC(=NC3CC3)SC2)c(C)n1-c1ccccc1F 39.8 µM [inhibitor, single point]
O=C(c1ccco1)N1CCN(C(=O)C2CCN(S(=O)(=O)Cc3ccccc3)CC2)CC1 89.1 µM [inhibitor, single point]
CNC(=O)NNC(=O)c1onc(-c2c(Cl)cccc2Cl)c1C(=O)OC 70.8 µM [inhibitor, partial curve]

Potency, active:
COc1ccccc1N1CCN(CCn2c(=O)c3c(c4ccccc4n3C)n(C)c2=O)CC1 44.7 µM
CC1C/C(=C/c2ccncc2)C(=O)/C(=C/c2ccncc2)C1 (stereo not given) 22.4 µM
O=[N+]([O-])c1cc(C(F)(F)F)cc([N+](=O)[O-])c1NN=C1CCCCC1 50.1 µM
CCCCOc1ccc(Cc2n[nH]c(=S)n2N)cc1 50.1 µM
